Assay results as given in article PMC3820547.
No constants are given. Whether binding was seen depends on the method and setting. In cells and extracts the contact can be indirect. Here binding means that the protein was enriched with, or labelled near, the bait; the list need not be complete. For some of these results: Where a sequence is shown, tags or fusion partners need not be part of it.

Protein sequences, listed by entry. Tags and fused reporters are not part of them. Lines headed by an entry give the natural chain unless they say otherwise; changes in a name come on top.
UniProt Q9UYX9: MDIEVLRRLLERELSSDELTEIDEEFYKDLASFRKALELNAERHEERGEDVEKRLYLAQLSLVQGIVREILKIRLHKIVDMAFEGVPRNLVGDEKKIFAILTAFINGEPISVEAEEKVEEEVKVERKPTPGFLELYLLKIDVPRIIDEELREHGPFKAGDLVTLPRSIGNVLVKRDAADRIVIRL

Legend:
Test in all cases: affinity purification with mass spectrometry; 10-30 ug of HIS- or GST-tagged bait immobilised on 2 mg cobalt or glutathione magnetic beads, incubated with 4 ml P. abyssi protein extract 3 h at 4°C, washed with PBS; two assays for each bait, without (nuc-) and with (nuc+) DNAse/RNAse treatment of the purified complexes; preys identified by LC-MS/MS; only the target purified
[1] = target: T1, Primase small subunit P41 (Q9V292), HIS-tagged (Pyrococcus abyssi) (UniProt Q9V292)
T1 sequence: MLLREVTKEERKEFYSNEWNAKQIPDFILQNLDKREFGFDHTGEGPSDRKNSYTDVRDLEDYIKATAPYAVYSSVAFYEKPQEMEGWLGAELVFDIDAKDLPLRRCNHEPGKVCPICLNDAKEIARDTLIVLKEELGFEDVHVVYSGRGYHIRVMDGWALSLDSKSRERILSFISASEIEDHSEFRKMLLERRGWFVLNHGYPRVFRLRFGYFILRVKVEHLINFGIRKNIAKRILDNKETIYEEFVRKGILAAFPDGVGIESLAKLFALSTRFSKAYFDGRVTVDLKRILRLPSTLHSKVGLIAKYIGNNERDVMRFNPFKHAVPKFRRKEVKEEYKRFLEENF

[2] = target: T2, RadB (Q9V2F6), HIS-tagged bait (Pyrococcus abyssi) (UniProt Q9V2F6)
T2 sequence: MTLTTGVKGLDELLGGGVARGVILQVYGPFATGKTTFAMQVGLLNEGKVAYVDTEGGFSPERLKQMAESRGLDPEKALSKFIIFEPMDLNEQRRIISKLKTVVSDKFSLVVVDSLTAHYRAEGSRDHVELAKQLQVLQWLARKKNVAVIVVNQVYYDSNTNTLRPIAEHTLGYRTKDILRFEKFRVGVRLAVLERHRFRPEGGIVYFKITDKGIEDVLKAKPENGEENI

[3] = target: T3, PCNA (Q9UYX8), HIS-tagged bait (Pyrococcus abyssi) (UniProt Q9UYX8)
T3 sequence: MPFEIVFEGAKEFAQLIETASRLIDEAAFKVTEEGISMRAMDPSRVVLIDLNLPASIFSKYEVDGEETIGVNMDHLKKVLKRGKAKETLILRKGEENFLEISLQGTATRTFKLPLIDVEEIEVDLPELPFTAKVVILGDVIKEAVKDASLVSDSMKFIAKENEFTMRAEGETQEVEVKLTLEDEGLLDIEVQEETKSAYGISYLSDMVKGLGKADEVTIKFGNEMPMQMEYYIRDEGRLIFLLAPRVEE

[4] = target: Gins 51 (Q9UYX9), HIS-tagged bait (Pyrococcus abyssi) (UniProt Q9UYX9)

B1: DNA ligase, endogenous (enzyme, UniProt P0CL74 1-559)
chain: MRYIELAQLYQKLEKTTMKLIKTRLVADFLKKVPEDHLEFIPYLILGDVFPEWDERELGVGEKLLIKAVSMATGIDSKEIENSVKDTGDLGESIALAVKRRKQKSFFSQPLTIKRVYQTLVKVAETTGEGSQDKKMKYLANLFMDAEPIEAKYIARTVLGTMRTGVAEGLLRDAISLAFNVKVELVERAYMLTSDFGFVAKIAKTEGNDGLAKVTIQIGKPIKPMLAQQAANIKEALLEMGGEAEFEIKYDGARVQVHKDGEKVTIYSRRLENVTRAIPEIVEAIKEALKPAKAIVEGELVAIGEDGRPLPFQYVLRRFRRKYNIEEMMEKIPLELNLFDVLYVDGVSLIDTKFMERRKKLEEIVEANGKVKIAENLITKNVEEAEQFYKRALEMGHEGLMAKRLDAIYEPGNRGKKWLKIKPTMENLDLVIIGAEWGEGRRAHLLGSFILGAYDPETGEFLEVGKVGSGFTDDDLVEFTKMLRPLIIKEEGKRVWIQPKVVIEVTYQEIQKSPKYRSGFALRFPRYVALREDKGPEDADTIERIAQLYELQERMKGKV
binding [1]: binds
binding [2]: binds

B2: NucS, endogenous (enzyme, UniProt Q9V2E8 1-251)
chain: MRKVIIKENPSEEEIKELLDLAEKHGGVVTIFARCKVHYEGRAKSELGEGDRIIIIKPDGSFLIHQNKKREPVNWQPPGSKVTFKENSIISIRRRPYERLEVEIIEPYSLVVFLAEDYEELALTGSEAEMANLIFENPRVIEEGFKPIYREKPIRHGIVDVMGVDKDGNIVVLELKRRKADLHAVSQLKRYVDSLKEEYGENVRGILVAPSLTEGAKKLLEKEGLEFRKLEPPKKGNEKRSKQKTLDFFTP
binding [3]: binds

B3: exonuclease subunit of the DNA polymerase D, endogenous (protein, UniProt Q9V2F3 1-619)
chain: MDELVKALERAGYLLTPSAYYLLVDHFKEGKFSLVELVKFAKSKGVFIIDGDLAYEFLQFLGLGVPQEIKESYISTGEEAEKTVESQETRASELEEGGVSQVSSGELQELKEESPEISTTEEEIGGLELVQSSISTGSEVEYNNGENGESVVVLDKYGYPILYAPEEIGEEKEYSKYEDVVIEWNPSVTPVQIEKNYEVKFDVRQVKLRPPKVKNGSGKEGEIIVEAYASLFKSRLSKLKRILRENPEISNVVDIGKLNYVSGDEEVTIIGLVNSKRETNRGLIFEVEDKTGIVKVFLPKDSEDYREAFKVLPDAVVAFKGFYSKKGIFFANKFYLPDVPLYRKQKPPLEEKVYAILISDIHVGSREFCEKAFLKFLEWLNGHVESKEEEEIVSRVKYLIIAGDVVDGIGIYPGQYSDLVIPDIFDQYEALANLLANVPEHITMFIGPGNHDAARPAIPQPEFYKEYAKPIYKLKNAIIISNPAVIRLHGRDFLIAHGRGIEDVVSFVPGLTHHKPGLPMVELLKMRHLAPTFGGKVPIAPDPEDLLVIEEVPDLVQMGHVHVYDAVVYRGVQLVNSATWQAQTEFQKMVNIVPTPAKVPVVDVESARVVKVLDFSGWC
binding [4]: binds
